{
  "source": "PubChem BioAssay AID540276",
  "about": "(National Center for Advancing Translational Sciences (NCATS), 2011)",
  "note": "Hit rate of the full screen: of about 300,000 compounds, about 5,400 (1.8%) were called active. Inconclusive results, whose numbers are uncertain, are shown with a selection of clear calls. The call rests on the fitted dose curve; tested in HEK293 cells. Where the call is inconclusive, the potency comes from a doubtful curve fit. On the % scale 0 is the no-effect control and ±100 the full control effect; potency means the concentration at half of the fitted maximal effect.",
  "data": [
    {"test": "qHTS for inhibitors of binding or entry into cells for Marburg Virus", "conditions": "Marburg virus pseudotyped entry inhibition, cell reporter; activity change, negative = inhibition: at 37.8 µM (top of the series) unless noted", "values": [
      {"smiles": "COc1cc(/C=N/NS(=O)(=O)c2ccc(C)cc2)ccc1OCc1ccc(C(=O)O)cc1", "Potency": "inconclusive: 1.41 µM [inhibitor, full curve, poor fit]"},
      {"smiles": "O=C(NN=Cc1ccc(N(CCCl)CCCl)cc1)c1cccnc1", "Potency": "active: 5.62 µM"},
      {"smiles": "COc1ccc(CC(=O)Nc2nc3ccccc3s2)cc1S(=O)(=O)N1CCOCC1", "Potency": "inconclusive: 23.1 µM [inhibitor, partial curve, poor fit]"},
      {"smiles": "COc1ccc(Cn2c(SCC(=O)NCc3ccco3)nc3ccsc3c2=O)cc1", "Potency": "inconclusive: 0.651 µM [activator, single point]"},
      {"smiles": "COCCNC(=O)c1c(NC(=O)c2cc(=O)c3cc(Cl)ccc3o2)sc2c1CCCC2", "Potency": "inconclusive: 39.8 µM [activator, partial curve, poor fit]"},
      {"smiles": "CN(C)CCOC(=O)c1cccc(Br)c1", "Potency": "inconclusive: 2.82 µM [inhibitor, full curve, poor fit]"},
      {"smiles": "COc1cccc(C(=O)NC2CC3CCCC(C2)N3CC(=O)Nc2ccccc2C(F)(F)F)c1", "note": "(stereo not given)", "Potency": "active: 11.2 µM"},
      {"smiles": "CCOc1ccc(N(CC(=O)N/N=C/c2cc([N+](=O)[O-])ccc2Cl)S(C)(=O)=O)cc1", "Potency": "inconclusive: 22.4 µM [inhibitor, single point]"},
      {"smiles": "COc1ccccc1N=Nc1c(C)noc1C", "activity change, negative = inhibition": "inactive: 0.0738%"},
      {"smiles": "Cc1ccc(CN2CCNC(=O)C2CC(=O)NCc2cc(C)n(C)n2)cc1", "note": "(stereo not given)", "activity change, negative = inhibition": "inactive: -8.33%"},
      {"smiles": "Cc1ccc(NC(=O)N2CCN(C)c3ncccc32)cc1C", "Potency": "inconclusive: 35.5 µM [inhibitor, single point]"},
      {"smiles": "CCOC(=O)c1c(NC(NC(C)=O)C(Cl)(Cl)Cl)sc2c1CCCC2", "note": "(stereo not given)", "Potency": "inconclusive: 15.8 µM [inhibitor, single point]"},
      {"smiles": "CCOc1cc(CNCc2ccc(C(=O)O)cc2)ccc1OC", "Potency": "inconclusive: 1.12 µM [inhibitor, partial curve, poor fit]"},
      {"smiles": "Cc1ccc(-c2noc(CCCC(=O)NC3CCCC3)n2)cc1", "Potency": "inconclusive: 6.31 µM [inhibitor, full curve, poor fit]"},
      {"smiles": "Cc1cccc(C(=O)NC(=S)Nc2ccc(S(=O)(=O)N3CCN(C)CC3)cc2)c1", "Potency": "inconclusive: 3.16 µM [activator, single point]"},
      {"smiles": "CCN(CC)S(=O)(=O)c1cc(NC(=O)c2cc([N+](=O)[O-])ccc2N2CCOCC2)ccc1C", "Potency": "active: 17.8 µM"},
      {"smiles": "COc1ccc(-c2noc(CCC(=O)Nc3cc(OC)ccc3OC)n2)cc1", "Potency": "inconclusive: 17.8 µM [inhibitor, single point]"},
      {"smiles": "CC1=C(CC(=O)c2ccccc2)C(=O)c2ccccc2C1=O", "Potency": "inconclusive: 22.4 µM [inhibitor, single point]"},
      {"smiles": "CCOc1ccc(-n2c(SCC(N)=O)nc3c(c2=O)SCC3)cc1", "activity change, negative = inhibition": "inactive: 5.39%"},
      {"smiles": "CCOC(=O)C1(CCCc2ccccc2)CCN(C(=O)CCn2cncn2)CC1", "Potency": "inconclusive: 35.5 µM [inhibitor, partial curve, poor fit]"},
      {"smiles": "Cc1ccc(C(=S)N2CCN(Cc3ccccc3)CC2)cc1", "activity change, negative = inhibition": "inactive: 4.77% [at 46.1 µM]"},
      {"smiles": "COc1ccc2[nH]c(CN3CCC(n4nccc4NC(=O)C4CC4)CC3)c(C)c2c1", "Potency": "inconclusive: 35.5 µM [activator, single point]"},
      {"smiles": "CCOC(=O)/C(=N\\Nc1ncnc2ccccc12)c1ccc(OC)cc1", "Potency": "inconclusive: 14.1 µM [inhibitor, partial curve, poor fit]"},
      {"smiles": "Cc1ccc(OCCNC(=O)C2CCCCC2)cc1", "Potency": "inconclusive: 1.58 µM [inhibitor, partial curve, poor fit]"},
      {"smiles": "Cc1cc(S(=O)(=O)N2CCN(C(=O)c3ccco3)CC2)ccc1F", "Potency": "inconclusive: 25.1 µM [inhibitor, single point]"},
      {"smiles": "CC(C)n1c2ccccc2c2nc3ccccc3nc21", "Potency": "inconclusive: 5.62 µM [inhibitor, single point]"},
      {"smiles": "COc1ccccc1CNC(=O)CCCn1c(=O)c2ccccc2n(Cc2ccccc2C#N)c1=O", "activity change, negative = inhibition": "inactive: 4.97% [at 46.1 µM]"},
      {"smiles": "Cc1cc(-c2ccc(N3CCOCC3)cc2)nc2ccccc12", "Potency": "inconclusive: 35.5 µM [inhibitor, single point]"},
      {"smiles": "COc1ccccc1NC(=O)CSc1oc(-c2ccccc2)nc1S(=O)(=O)c1ccccc1", "Potency": "inconclusive: 7.08 µM [inhibitor, partial curve, poor fit]"},
      {"smiles": "COc1cc(-c2oc3ccc(C)cc3c(=O)c2O)cc(OC)c1OC", "Potency": "inconclusive: 11.2 µM [inhibitor, partial curve]"},
      {"smiles": "C=CCN1CCc2cc(O)c(O)cc2[C@H](c2ccccc2)C1", "Potency": "inconclusive: 32.6 µM [inhibitor, single point]"},
      {"smiles": "COc1c2ccoc2nc2c(OC)c(OCC(O)C(C)(C)O)ccc12", "note": "(stereo not given)", "Potency": "inconclusive: 12.6 µM [activator, single point]"},
      {"smiles": "N#C/C(=C(/O)CN1CCOCC1)c1nc2ccccc2s1", "Potency": "inconclusive: 25.1 µM [activator, single point]"},
      {"smiles": "NS(=O)(=O)c1ccc(CCNC(=O)c2ccc3c(c2)OCO3)cc1", "activity change, negative = inhibition": "inactive: -1.65% [at 46.1 µM]"},
      {"smiles": "CN(Cc1ccccc1)C(=O)c1cc(-c2cccc(Cl)c2)on1", "activity change, negative = inhibition": "inactive: -0.671% [at 46.1 µM]"},
      {"smiles": "COc1cccc(CNC(=O)CCCCCn2c(=O)[nH]c3cc(OC)c(OC)cc3c2=O)c1", "activity change, negative = inhibition": "inactive: -1.46% [at 46.1 µM]"},
      {"smiles": "CN1C2CCC1CC(OC(=O)c1ccc(Cl)cc1)C2", "note": "(stereo not given)", "activity change, negative = inhibition": "inactive: -18.1%"},
      {"smiles": "CC(=O)c1cccc(Nc2ncnc3ccc(Br)cc23)c1", "Potency": "inconclusive: 5.01 µM [inhibitor, full curve, poor fit]"},
      {"smiles": "Nc1cc2c(cc1C(=O)c1cccc(Br)c1)OCCO2", "Potency": "inconclusive: 35.5 µM [inhibitor, single point]"},
      {"smiles": "Cc1ccc(C(=O)NC(=S)Nc2cccc(NC(=O)c3ccccc3Cl)c2)cc1[N+](=O)[O-]", "Potency": "inconclusive: 1 µM [activator, partial curve, poor fit]"},
      {"smiles": "CC1=CC(=NOC(=O)c2cccc([N+](=O)[O-])c2)C=C(C)C1=O", "activity change, negative = inhibition": "inactive: -4%"},
      {"smiles": "O=C(OC1=C2C=CC=C3CCN(C(=O)C1c1ccccc1)C32)c1ccccc1", "note": "(stereo not given)", "Potency": "inconclusive: 8.91 µM [inhibitor, partial curve, poor fit]"},
      {"smiles": "CCOC(=O)C1CCN(C(=O)COC(=O)COc2ccc(Cl)cc2)CC1", "Potency": "inconclusive: 1.12 µM [inhibitor, full curve, poor fit]"},
      {"smiles": "O=C(/C=C/c1ccc(F)cc1)NC(=S)N1CCCCC1c1cccnc1", "note": "(stereo not given)", "activity change, negative = inhibition": "inactive: 8.14% [at 46.1 µM]"},
      {"smiles": "COc1ccccc1NC(=O)CN1CCN(CC(=O)Nc2ccc3c(c2)OCO3)CC1", "activity change, negative = inhibition": "inactive: 0%"},
      {"smiles": "O=C(NCCNC(=O)c1ccc(Cl)cc1Cl)c1cnccn1", "activity change, negative = inhibition": "inactive: 0.388% [at 46.1 µM]"},
      {"smiles": "CCOC(=O)Cc1csc(NC(=O)c2ccc(Cl)nc2)n1", "Potency": "inconclusive: 14.6 µM [inhibitor, single point]"},
      {"smiles": "Cc1ccc(C2CC(=O)Nc3cc4c(cc32)OCO4)o1", "note": "(stereo not given)", "Potency": "inconclusive: 7.3 µM [inhibitor, partial curve, poor fit]"},
      {"smiles": "Cc1ccc(-n2[nH]c(C)c(C=NC34CN5CN(CN(C5)C3)C4)c2=O)cc1C", "activity change, negative = inhibition": "inactive: 12.6%"},
      {"smiles": "COc1ccc2[nH]c(=O)c(CN(C(=O)c3cccc(Cl)c3)c3cccc(C)c3)cc2c1", "activity change, negative = inhibition": "inactive: 3.54% [at 46.1 µM]"},
      {"smiles": "COc1cc(C)ccc1OCc1cc(C(=O)NCc2ccncc2)no1", "Potency": "inconclusive: 35.5 µM [inhibitor, single point]"},
      {"smiles": "CN(C)C(=O)c1ccc(-n2cnc3ccccc3c2=O)cc1", "activity change, negative = inhibition": "inactive: -15.3% [at 46.1 µM]"},
      {"smiles": "COc1ccc2nc(Nc3nc4ccc(NC(C)=O)cc4s3)sc2c1", "Potency": "inconclusive: 35.5 µM [inhibitor, single point]"},
      {"smiles": "O=C(c1ccc(Cl)cc1)N1N=C(c2ccccn2)CC1(O)C(F)(F)F", "note": "(stereo not given)", "Potency": "active: 7.94 µM"},
      {"smiles": "Cc1ccn2c(NCc3ccccc3)c(-c3cccs3)nc2c1", "Potency": "inconclusive: 2.24 µM [activator, partial curve, poor fit]"},
      {"smiles": "COc1cccc(COC(=O)c2ccc3c(=O)n4c(nc3c2)CCC4)c1OC", "activity change, negative = inhibition": "inactive: 18.3%"},
      {"smiles": "Cc1cccc2sc(NNC(=O)c3ccc(S(=O)(=O)N4CCc5ccccc5C4)cc3)nc12", "Potency": "inconclusive: 29.1 µM [inhibitor, single point]"},
      {"smiles": "Cc1cc(C)nc(NS(=O)(=O)c2ccc(NC(=O)CN3C(=O)S/C(=C\\c4ccccc4)C3=O)cc2)n1", "Potency": "inconclusive: 0.398 µM [inhibitor, full curve]"},
      {"smiles": "COc1c(NC=O)c2c(c([N+](=O)[O-])c1OC)C(=O)OC2", "Potency": "inconclusive: 2.24 µM [inhibitor, partial curve, poor fit]"},
      {"smiles": "COc1ccccc1NS(=O)(=O)c1cccc(C(=O)N/N=C(/C)c2ccc(-n3ccnc3)cc2)c1", "Potency": "inconclusive: 35.5 µM [inhibitor, single point]"},
      {"smiles": "C=C1C(=O)OC2CC1C(O)CC(C)=CCCC(C)=CC(O)CC2C", "note": "(stereo not given)", "Potency": "active: 3.98 µM"},
      {"smiles": "O=C(COc1ccc(-c2nnco2)cc1)NC1CCCc2ccccc21", "note": "(stereo not given)", "Potency": "inconclusive: 9.2 µM [inhibitor, partial curve, poor fit]"},
      {"smiles": "O=C(Cn1c(CO)nc2ccccc21)NCc1ccc2c(c1)OCO2", "activity change, negative = inhibition": "inactive: 7.91% [at 46.1 µM]"},
      {"smiles": "O=C(Nc1ncn[nH]1)c1ccc(Cl)c(Cl)c1", "Potency": "inconclusive: 0.891 µM [inhibitor, single point]"},
      {"smiles": "CCCc1nc(SCC(=O)N2CCC(Cc3ccccc3)CC2)c2c(=O)n(C)c(=O)n(C)c2n1", "activity change, negative = inhibition": "inactive: -0.847%"},
      {"smiles": "Cc1ccc(N=C2NC(=O)CS2)c(C)c1", "activity change, negative = inhibition": "inactive: -2.82%"},
      {"smiles": "COC(=O)NC1c2ccccc2Oc2ccccc21", "Potency": "inconclusive: 1.26 µM [activator, partial curve, poor fit]"},
      {"smiles": "S=c1[nH]nc(-c2ccccc2)o1", "activity change, negative = inhibition": "inactive: 2.87%"},
      {"smiles": "CCc1c(-c2ccccc2)[n+](=O)c2c(n1[O-])CCC2", "activity change, negative = inhibition": "inactive: -6.57%"},
      {"smiles": "O=C(CN1C(=O)c2cccc3cccc1c23)NCc1cccnc1", "Potency": "inconclusive: 0.447 µM [activator, partial curve, poor fit]"}
    ]}
  ]
}
